Test results as given in PMC4382702, “Artificial human Met agonists based on macrocycle scaffolds” (Nature Communications, 2015).
Results are given in words; binding and its absence hold for the method and conditions named. Some results given as binding are weak or reduced against the parent protein; the word gives no strength.

The chains behind the UniProt entries cited, without tags or fusion partners. Residues count along the entry.
UniProt P14210, residues 32-728: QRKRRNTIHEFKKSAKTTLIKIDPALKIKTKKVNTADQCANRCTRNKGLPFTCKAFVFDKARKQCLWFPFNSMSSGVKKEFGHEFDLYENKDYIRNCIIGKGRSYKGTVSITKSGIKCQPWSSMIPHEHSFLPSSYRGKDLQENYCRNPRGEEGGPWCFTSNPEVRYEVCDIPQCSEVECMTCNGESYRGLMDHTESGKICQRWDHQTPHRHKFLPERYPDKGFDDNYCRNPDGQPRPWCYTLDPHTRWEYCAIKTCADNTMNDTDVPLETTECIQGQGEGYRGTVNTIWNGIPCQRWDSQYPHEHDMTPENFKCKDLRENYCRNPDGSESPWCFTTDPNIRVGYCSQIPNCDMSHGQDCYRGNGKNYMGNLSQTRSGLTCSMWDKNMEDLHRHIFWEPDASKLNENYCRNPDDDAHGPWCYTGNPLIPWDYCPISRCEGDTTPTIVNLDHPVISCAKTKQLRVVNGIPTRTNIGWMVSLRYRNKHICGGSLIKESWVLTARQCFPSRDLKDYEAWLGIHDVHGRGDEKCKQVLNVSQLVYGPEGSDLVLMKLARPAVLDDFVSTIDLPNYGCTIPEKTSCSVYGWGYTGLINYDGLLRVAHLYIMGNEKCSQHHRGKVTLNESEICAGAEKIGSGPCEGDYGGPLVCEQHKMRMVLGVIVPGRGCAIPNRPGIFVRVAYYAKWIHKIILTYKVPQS
UniProt Q75ZY9, residues 25-935: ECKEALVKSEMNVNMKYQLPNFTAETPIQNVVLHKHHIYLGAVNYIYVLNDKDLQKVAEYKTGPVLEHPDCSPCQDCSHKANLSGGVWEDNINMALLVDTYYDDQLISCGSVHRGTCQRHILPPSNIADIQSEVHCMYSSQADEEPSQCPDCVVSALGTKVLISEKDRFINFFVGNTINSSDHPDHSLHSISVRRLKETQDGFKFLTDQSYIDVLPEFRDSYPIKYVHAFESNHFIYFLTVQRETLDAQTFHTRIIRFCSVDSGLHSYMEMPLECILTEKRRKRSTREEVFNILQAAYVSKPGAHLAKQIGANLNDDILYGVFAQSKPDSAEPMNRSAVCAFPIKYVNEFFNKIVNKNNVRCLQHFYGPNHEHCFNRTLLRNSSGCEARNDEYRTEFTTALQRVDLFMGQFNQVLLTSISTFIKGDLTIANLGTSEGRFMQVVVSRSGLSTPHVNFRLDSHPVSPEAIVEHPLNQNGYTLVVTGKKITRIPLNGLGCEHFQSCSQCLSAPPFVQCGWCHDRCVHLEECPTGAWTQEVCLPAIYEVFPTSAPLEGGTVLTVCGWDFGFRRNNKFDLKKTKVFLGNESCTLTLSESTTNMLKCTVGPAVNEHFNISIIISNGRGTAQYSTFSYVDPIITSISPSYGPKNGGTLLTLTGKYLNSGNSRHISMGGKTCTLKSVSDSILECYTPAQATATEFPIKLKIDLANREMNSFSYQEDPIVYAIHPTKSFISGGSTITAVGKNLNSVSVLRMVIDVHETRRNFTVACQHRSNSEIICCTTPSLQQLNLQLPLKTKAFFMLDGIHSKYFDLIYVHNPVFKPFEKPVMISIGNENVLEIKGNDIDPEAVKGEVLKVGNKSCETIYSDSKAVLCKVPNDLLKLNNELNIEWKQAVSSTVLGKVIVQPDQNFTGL

target: biotinylated hHGF (human) (UniProt P14210); assay: SPR; Biacore T200; biotinylated macrocycle (200-500 RU) or biotinylated hHGF (~2,200 RU) immobilised on a CAP sensor chip (Biotin CAPture Kit); human, murine or canine Met ectodomain tested; single-cycle kinetics; HBS EP+ with 0.1% DMSO; 1:1 binding model; both purified

binding, binds:
Recombinant human Met ectodomain-Fc chimera protein (from UniProt P08581 25-932) (Fc fusion)
canine Met ectodomain (from UniProt Q75ZY9 25-935) (domain or fragment)
murine Met ectodomain-Fc chimera protein (from UniProt P16056 25-931) (Fc fusion)
